{"source": "PubChem BioAssay AID504793 (Drosophila RNAi Screening Center, 2011)", "screen": "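Whole-genome screen for parts of the DNA damage checkpoint at G2/M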 (primary screen)", "cell system": "Drosophila S2R+ cells", "reagent": "long dsRNA against Drosophila genes, about 0.25 µg dsRNA per well", "duration": "4 days of dsRNA, then 4 hours of drug before read-out", "conditions": "doxorubicin 0.5 µM for 4 hours to cause double-strand breaks, in cells also given a low, harmless dose of dsRNA against nbs to sensitise the assay", "measurement": "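Per-well count of mitotic cells stained for phospho-histone H3 after doxorubicin exposure, used as mitotic index; counts are raw and not normalised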", "scale": "mitotic cells: higher = more cells in mitosis, weaker G2 arrest", "call rule": "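a call needs confirmation in secondary tests, with other dsRNAs and a check of mitotic timing without damage, not just a high primary count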", "calls": "active = confirmed in follow-up tests; inactive = not confirmed", "note": "In all, the deposit lists about 23,000 reagents; below is an unselected part of those with a known target gene and a result. Of all reagents, 62 (0.27%) are marked active. 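Calls come from follow-up tests whose scores are not deposited, so confirmed genes may have low counts here; counts are not normalised per plate.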 Raw values vary from plate to plate and are shown uncorrected. No sequences are given here."}
{"gene knocked down":"Klp64D (Kinesin-like protein at 64D)","DRSC id":"DRSC11204","mitotic cells, replicate 1":4,"outcome":"inactive"}
{"gene knocked down":"Gr63a (Gustatory receptor 63a)","DRSC id":"DRSC08438","mitotic cells, replicate 1":12,"outcome":"inactive"}
{"gene knocked down":"CG6980","DRSC id":"DRSC16162","mitotic cells, replicate 1":9,"outcome":"inactive"}
{"gene knocked down":"CG6980","DRSC id":"DRSC29355","mitotic cells, replicate 1":3,"outcome":"inactive"}
{"gene knocked down":"Ilp4 (Insulin-like peptide 4)","DRSC id":"DRSC10701","mitotic cells, replicate 1":2,"outcome":"inactive"}
{"gene knocked down":"Ilp4 (Insulin-like peptide 4)","DRSC id":"DRSC26585","mitotic cells, replicate 1":6,"outcome":"inactive"}
{"gene knocked down":"acs (arcus)","DRSC id":"DRSC08185","mitotic cells, replicate 1":4,"outcome":"inactive"}
{"gene knocked down":"acs (arcus)","DRSC id":"DRSC27629","mitotic cells, replicate 1":4,"outcome":"inactive"}
{"gene knocked down":"BomBc1 (Bomanin Bicipital 1)","DRSC id":"DRSC06501","mitotic cells, replicate 1":13,"outcome":"inactive"}
{"gene knocked down":"BomBc1 (Bomanin Bicipital 1)","DRSC id":"DRSC23723","mitotic cells, replicate 1":11,"outcome":"inactive"}
{"gene knocked down":"Hexim (Hexamethylene bisacetamide inducible)","DRSC id":"DRSC15490","mitotic cells, replicate 1":5,"outcome":"inactive"}
{"gene knocked down":"Mlp60A (Muscle LIM protein at 60A)","DRSC id":"DRSC04623","mitotic cells, replicate 1":13,"outcome":"inactive"}
{"gene knocked down":"Mlp60A (Muscle LIM protein at 60A)","DRSC id":"DRSC22233","mitotic cells, replicate 1":17,"outcome":"inactive"}
{"gene knocked down":"Mlp60A (Muscle LIM protein at 60A)","DRSC id":"DRSC22481","mitotic cells, replicate 1":14,"outcome":"inactive"}
{"gene knocked down":"CG5693","DRSC id":"DRSC02878","mitotic cells, replicate 1":8,"outcome":"inactive"}
{"gene knocked down":"tin (tinman)","DRSC id":"DRSC17083","mitotic cells, replicate 1":13,"outcome":"inactive"}
{"gene knocked down":"tin (tinman)","DRSC id":"DRSC23248","mitotic cells, replicate 1":5,"outcome":"inactive"}
{"gene knocked down":"tin (tinman)","DRSC id":"DRSC28260","mitotic cells, replicate 1":4,"outcome":"inactive"}
{"gene knocked down":"AIMP3 (aaRS-interacting multifunctional protein 3)","DRSC id":"DRSC04500","mitotic cells, replicate 1":8,"outcome":"inactive"}
{"gene knocked down":"AIMP3 (aaRS-interacting multifunctional protein 3)","DRSC id":"DRSC26724","mitotic cells, replicate 1":5,"outcome":"inactive"}
{"gene knocked down":"CG2493","DRSC id":"DRSC02707","mitotic cells, replicate 1":3,"outcome":"inactive"}
{"gene knocked down":"ATPsynbetaL (ATP synthase, beta subunit-like)","DRSC id":"DRSC10503","mitotic cells, replicate 1":8,"outcome":"inactive"}
{"gene knocked down":"ATPsynbetaL (ATP synthase, beta subunit-like)","DRSC id":"DRSC24354","mitotic cells, replicate 1":3,"outcome":"inactive"}

Already shown: 3 of the entries above.
{"gene knocked down":"acs (arcus)","DRSC id":"DRSC08185","mitotic cells, replicate 1":4,"outcome":"inactive"}
{"gene knocked down":"acs (arcus)","DRSC id":"DRSC27629","mitotic cells, replicate 1":4,"outcome":"inactive"}
{"gene knocked down":"BomBc1 (Bomanin Bicipital 1)","DRSC id":"DRSC06501","mitotic cells, replicate 1":13,"outcome":"inactive"}
